Reference: paper PMC5809328 (Neuropharmacology, 2017)

Columns and labels:
[1] = test system: mouse; conditions: in vivo, po; cited from earlier work
[2] = test system: mice; conditions: mouse, in vivo, sc
[3] = test system: mouse; conditions: in vivo, sc; cited from earlier work

## CN1CC[C@]23c4c5ccc(O)c4O[C@H]2[C@@H](O)C=C[C@H]3[C@H]1C5 [Morphine]
[1]
  EC50 for analgesic activity, acetic acid writhing: 0.33 mg/kg
[2]
  EC50 in tail flick assay: 2.5 mg/kg
[3]
  EC50 for analgesic activity, tail flick: 1.5 mg/kg
